Data taken from PMC9715706.
These are yes or no findings as the source states them, for the method shown. Some entries that bind do so weakly or less than the wild type.

Biological target: γ-aminobutyric acid receptor type B (GABAB) subunit 2 (human) (UniProt O75899)
Assay: SDS-PAGE with autoradiography; 14C-leucine-labelled proteins from individual or equimolar coexpression in Sf21 cell-free lysate; acetone-precipitated, LDS sample buffer, SDS-PAGE; dimeric band quantified by densitometry (ImageQuant TL, data not shown)

- binding: binds weakly
B1: γ-aminobutyric acid receptor type B (GABAB) subunit 2 (receptor, UniProt O75899 42-941)
chain: WARGAPRPPPSSPPLSIMGLMPLTKEVAKGSIGRGVLPAVELAIEQIRNESLLRPYFLDLRLYDTECDNAKGLKAFYDAIKYGPNHLMVFGGVCPSVTSIIAESLQGWNLVQLSFAATTPVLADKKKYPYFFRTVPSDNAVNPAILKLLKHYQWKRVGTLTQDVQRFSEVRNDLTGVLYGEDIEISDTESFSNDPCTSVKKLKGNDVRIILGQFDQNMAAKVFCCAYEENMYGSKYQWIIPGWYEPSWWEQVHTEANSSRCLRKNLLAAMEGYIGVDFEPLSSKQIKTISGKTPQQYEREYNNKRSGVGPSKFHGYAYDGIWVIAKTLQRAMETLHASSRHQRIQDFNYTDHTLGRIILNAMNETNFFGVTGQVVFRNGERMGTIKFTQFQDSREVKVGEYNAVADTLEIINDTIRFQGSEPPKDKTIILEQLRKISLPLYSILSALTILGMIMASAFLFFNIKNRNQKLIKMSSPYMNNLIILGGMLSYASIFLFGLDGSFVSEKTFETLCTVRTWILTVGYTTAFGAMFAKTWRVHAIFKNVKMKKKIIKDQKLLVIVGGMLLIDLCILICWQAVDPLRRTVEKYSMEPDPAGRDISIRPLLEHCENTHMTIWLGIVYAYKGLLMLFGCFLAWETRNVSIPALNDSKYIGMSVYNVGIMCIIGAAVSFLTRDQPNVQFCIVALVIIFCSTITLCLVFVPKLITLRTNPDAATQNRRFQFTQNQKKEDSKTSTSVTSVNQASTSRLEGLQSENHRLRMKITELDKDLEEVTMQLQDTPEKTTYIKQNHYQELNDILNLGNFTESTDGGKAILKNHLDQNPQLQWNTTEPSRTCKDPIEDINSPEHIQRRLSLQLPILHHAYLPSIGGVDASCVSPCVSPTASPRHRHVPPSFRVMVSGL
modifications: 14C-leucine (autoradiography only); N-glycosylated
